From patent US12221428B2, “Use of deuterated empathogens as therapeutic agents” (priority 2021, dated 2025)
Some entries share one result that the patent states for a list of compounds.

Test system: T1, various receptors, transporters, and ion channels
T1 construct: fused on or other part: PathHunter lines carry a beta-galactosidase fragment tag on the receptor (arrestin assay for HTR5A, HTR6); It is no part of the key
Assay: In vitro receptor and transporter interaction profiling, other targets
Format: cell-based
Conditions: targets other than those of Table 2

| Compound | EC50 [µM] |
| --- | --- |
| [2H]C([2H])([2H])NC(C)Cc1ccc2c(c1)OCO2 (centres unmarked) [MDMA-d3] | > 10 |
| CNC(C)Cc1ccc2c(c1)OCO2 (centres unmarked) [MDMA, 3,4-methylenedioxymethamphetamine] | > 10 |
